Experimental findings from paper PMC10418980, “Synthesis and Evaluation of ^177Lu-DOTA-PD-L1-i and ^225Ac-HEHA-PD-L1-i as Potential Radiopharmaceuticals for Tumor Microenvironment-Targeted Radiotherapy” (International Journal of Molecular Sciences, 2023) are described below.

Values joined by “and” are separate entries in the source; they are usually repeats but may differ in a detail not shown here. Equal values may be shown once.

The data set has as its system target organs of athymic mice with HCC827 lung micrometastases. Put plainly: Absorbed radiation dose assessment. Type of data set: in vivo.
Where [1] appears, read: 177Lu, integration of A(t) from t = 0 to ∞.

Take `CCCC[C@H]1C(=O)N(C)[C@@H](CCCC)C(=O)N[C@@H](CCCNC(=S)Nc2ccc(C[C@H]3CN(CC(=O)O)CCN(CC(=O)O)CCN(CC(=O)O)CCN3CC(=O)O)cc2)C(=O)N[C@H](C(=O)NCC(N)=O)CSCC(=O)N[C@@H](Cc2ccc(O)cc2)C(=O)N(C)[C@@H](C)C(=O)N[C@@H](CC(N)=O)C(=O)N2CCC[C@H]2C(=O)N[C@@H](Cc2c[nH]cn2)C(=O)N[C@@H](CC(C)C)C(=O)N2C[C@H](O)C[C@H]2C(=O)N[C@@H](Cc2c[nH]c3ccccc23)C(=O)N[C@@H](CO)C(=O)N[C@@H](Cc2cn(C)c3ccccc23)C(=O)N1C` [^177Lu-DOTA-PD-L1-i, metal not drawn]: for the setting “177Lu, DF values of OLINDA 2.0”, the “radiation absorbed dose, kidney” value came out at 4.20 mGy/MBq; the “radiation absorbed dose, liver” value is recorded as 0.85 mGy/MBq; the “radiation absorbed dose, lung (HCC827 cancer cells)” value is 43 mGy/MBq and 43.0 mGy/MBq. Under setting [1], the “total nuclear transformations N, kidney” value is listed as 10.9 MBq·h; the “total nuclear transformations N, liver” value was found to be 9.67 MBq·h; the “total nuclear transformations N, lung (HCC827 cancer cells)” value was determined as 59.3 MBq·h. For the same compound, the “absorbed radiation dose to the lungs relative to the kidneys” value (lung micrometastases vs kidneys) is on record as “ten”.
